Assay results published in PubChem BioAssay AID540276 (National Center for Advancing Translational Sciences (NCATS), 2011).
Where “and” joins values, the source holds several entries; their conditions need not be identical. Identical values can stand only once. Hit rate of the full screen: of about 300,000 compounds, about 5,400 (1.8%) were called active. The shares of active, inactive and inconclusive entries below differ from those in the screen. The call rests on the fitted dose curve; tested in HEK293 cells. Potencies beside an inconclusive call are fits to weak or partial responses and may not hold up.

Assay: qHTS for inhibitors of binding or entry into cells for Marburg Virus
Conditions: Marburg virus pseudotyped entry inhibition, cell reporter; series mostly up to 37.8 µM
Potency means the concentration at half of the fitted maximal effect.

Question: Which Potency does the source give for `C=CCn1cc(C(=O)N2CCN(C)CC2)c(=O)c2cc(S(=O)(=O)N(CC)CC)ccc21` here?
Answer: The Potency was inconclusive: 0.631 µM [inhibitor, full curve, poor fit].

Question: For `CCOC(=O)C(=Cc1ccc(-n2ccnc2)cc1)C(=O)OCC`, which Potency is on record?
Answer: The Potency was inconclusive: 17.8 µM [inhibitor, single point].

Question: With `Cc1sc2ncnc(N3CCC(C(=O)N(C)CC(=O)Nc4ccc(Cl)c(C(F)(F)F)c4)CC3)c2c1C` as the molecule, how does the Potency read?
Answer: Its Potency is inconclusive: 14.1 µM [inhibitor, partial curve, poor fit].

Question: With `CC(=O)c1ccc(N2CCN(C(=S)Nc3ccccc3C(F)(F)F)CC2)cc1` as the molecule, how does the Potency read?
Answer: Its Potency is inconclusive: 35.5 µM [inhibitor, partial curve, poor fit].

Question: Which Potency does the source give for `Cc1ccc(/C=N/N2CCN(Cc3ccccc3)CC2)o1` here?
Answer: Its Potency is inconclusive: 29.1 µM [activator, single point].

Question: For `COc1cc(OC)cc(C(=O)Nc2cccc3nc(C)ccc23)c1`, which Potency is on record?
Answer: Its Potency is inconclusive: 5.01 µM [inhibitor, single point].

Question: With `O=[N+]([O-])c1ccc(Sc2nnnn2-c2ccccc2)nc1` as the molecule, how does the Potency read?
Answer: Its Potency is active: 12.6 µM.

Question: For `Cc1cc(C)cc(NC(=O)N2CCN(C/C=C/c3ccccc3)CC2)c1`, which Potency is on record?
Answer: Its Potency is “inactive”.

Question: Which Potency does the source give for `CCc1ccc(N=C2N=C(N)c3ccccc32)cc1` here?
Answer: The Potency was inconclusive: 35.5 µM [inhibitor, single point].

Question: With `O=C(NCC(=O)N1CCOCC1)c1ccccc1` as the molecule, how does the Potency read?
Answer: The Potency was inconclusive: 3.16 µM [activator, full curve, poor fit].

Question: For `O=C1/C(=C/c2ccccc2)Oc2cc(OC(=O)N3CCOCC3)ccc21`, which Potency is on record?
Answer: The Potency was “inactive”.

Question: Which Potency does the source give for `O=C(Nc1nc(-c2ccc(F)c(F)c2)cs1)c1ccc(OCC2CCCO2)cc1` (stereo not given) here?
Answer: The Potency was inconclusive: 3.55 µM [inhibitor, full curve].

Question: Which Potency does the source give for `c1ccc(CN2CCN(c3nc(-c4ccccn4)nc4ccccc34)CC2)cc1` here?
Answer: Its Potency is “inactive”.

Question: For `N#C/C(=C\c1cccnc1)C(=O)Nc1cccc2ccccc12`, which Potency is on record?
Answer: The Potency was inconclusive: 35.5 µM [inhibitor, single point].

Question: For `Cc1ccccc1OCC(=O)N1N=C(C(F)(F)F)CC1(O)C(C)(C)C` (stereo not given), which Potency is on record?
Answer: Its Potency is “inactive”.

Question: Which Potency does the source give for `CCOc1ccccc1OCCCC(=O)N1CCN(S(=O)(=O)c2ccc(C)cc2)CC1` here?
Answer: Its Potency is inconclusive: 29.1 µM [inhibitor, single point].

Question: Which Potency does the source give for `O=C(NCc1ccco1)c1ccc(Cn2cc([N+](=O)[O-])cn2)o1` here?
Answer: The Potency was “inactive”.

Question: Which Potency does the source give for `CCNc1c(NC(=O)c2cc(OCC)c(OCC)c(OCC)c2)c(=O)oc2ccccc12` here?
Answer: Its Potency is “inactive”.

Question: With `O=C1C(Cc2c[nH]c3ccccc23)NC(=S)N1C1CCCCC1` (stereo not given) as the molecule, how does the Potency read?
Answer: Its Potency is inconclusive: 1.78 µM [inhibitor, full curve].

Question: With `O=[N+]([O-])c1ccc(O)c(/C=N/Nc2nn[nH]n2)c1` as the molecule, how does the Potency read?
Answer: Its Potency is “inactive”.

Question: Which Potency does the source give for `Cc1ccc(NC(=S)Nc2cccc(-c3n[nH]c(=S)o3)c2)cc1` here?
Answer: Its Potency is inconclusive: 35.5 µM [activator, single point].

Question: For `COc1ccccc1C(CC(=O)Nc1nccs1)c1ccco1` (stereo not given), which Potency is on record?
Answer: The Potency was “inactive”.

Question: Which Potency does the source give for `CCN(CC)S(=O)(=O)c1ccc(C)c(NC(=S)NC2CCCCC2)c1` here?
Answer: Its Potency is inconclusive: 35.5 µM [inhibitor, single point].

Question: For `CCOC(=O)Nc1ccc2c(CN3CCN(S(=O)(=O)c4ccccc4F)CC3)cc(=O)oc2c1`, which Potency is on record?
Answer: The Potency was inconclusive: 3.16 µM [inhibitor, single point].

Question: With `CC(C)(C)C(=O)/C=C(\N)c1ccccn1` as the molecule, how does the Potency read?
Answer: The Potency was inconclusive: 1.58 µM [activator, partial curve, poor fit].

Question: Which Potency does the source give for `O=C1NC(=O)C2(CCCCCCC2)N1` here?
Answer: The Potency was “inactive”.

Question: Which Potency does the source give for `Cn1ncc(Cl)c1C(=O)N/N=C/c1cccc(OC2CSC2)c1` here?
Answer: Its Potency is “inactive”.

Question: With `O=C(c1cccc(C(F)(F)F)c1)C1CCCN(C(=O)CN2CCCC2=O)C1` (stereo not given) as the molecule, how does the Potency read?
Answer: Its Potency is “inactive”.

Question: Which Potency does the source give for `CCc1ccccc1N(C1=NCCCS1)S(=O)(=O)c1ccc(C(C)(C)C)cc1` here?
Answer: The Potency was inconclusive: 0.631 µM [activator, full curve, poor fit].

Question: Which Potency does the source give for `NS(=O)(=O)c1ccc(CCNC(=O)CCc2nc3sc4c(c3c(=O)[nH]2)CCCC4)cc1` here?
Answer: Its Potency is inconclusive: 35.5 µM [inhibitor, single point].

Question: Which Potency does the source give for `Cc1cccc(N(CC(=O)NCCSc2ccccn2)S(=O)(=O)c2ccccc2)c1` here?
Answer: Its Potency is inconclusive: 5.62 µM [inhibitor, single point].

Question: For `Cc1noc(C)c1CSCC(=O)Nc1cc(C(F)(F)F)ccc1N1CCCCC1`, which Potency is on record?
Answer: The Potency was inconclusive: 17.8 µM [inhibitor, partial curve, poor fit].

Question: Which Potency does the source give for `COc1ccc(NC(=S)NC(=NS(=O)(=O)c2ccc(Cl)cc2)c2ccccc2)cc1` here?
Answer: Its Potency is inconclusive: 31.6 µM [inhibitor, single point].

Question: With `O=C(CCC1CCCCC1)NNC(=O)c1cnccn1` as the molecule, how does the Potency read?
Answer: Its Potency is “inactive”.

Question: With `COc1cc(C)nc(NC(=O)NC(=O)c2ccc(C(F)(F)F)cc2)n1` as the molecule, how does the Potency read?
Answer: The Potency was inconclusive: 11.2 µM [activator, single point].

Question: With `CCCc1ccc(C(C)NC(=S)NCc2ccc(F)cc2)cc1` (stereo not given) as the molecule, how does the Potency read?
Answer: The Potency was inconclusive: 22.4 µM [inhibitor, partial curve, poor fit].

Question: For `CCCCOc1ccc(CSC(=N)N)cc1[N+](=O)[O-]`, which Potency is on record?
Answer: Its Potency is active: 14.1 µM.

Question: With `c1ccc2c(N3CCOCC3)nc(-c3ccncc3)nc2c1` as the molecule, how does the Potency read?
Answer: The Potency was inconclusive: 7.94 µM [inhibitor, partial curve, poor fit].

Question: For `CS/C(Nc1cc(Cl)ccc1Cl)=C(/C#N)C(=O)c1ccco1`, which Potency is on record?
Answer: Its Potency is inconclusive: 2.51 µM [inhibitor, full curve].

Question: Which Potency does the source give for `COc1ccc2occ(C(=O)c3cccs3)c2c1` here?
Answer: The Potency was “inactive”.

Question: Which Potency does the source give for `O=C1NCCN(Cc2cccc(Oc3ccccc3)c2)C1CC(=O)N1CCCO1` (stereo not given) here?
Answer: Its Potency is “inactive”.

Question: Which Potency does the source give for `Clc1ccc(-c2nnc(-c3cccc4ccccc34)o2)cc1` here?
Answer: Its Potency is inconclusive: 2 µM [activator, partial curve, poor fit].

Question: With `COc1cc([N+](=O)[O-])cc(/C=N/NC(=O)C(O)(c2ccccc2)c2ccccc2)c1O` as the molecule, how does the Potency read?
Answer: Its Potency is inconclusive: 5.62 µM [inhibitor, partial curve].

Question: Which Potency does the source give for `Cc1cccc(N2CCc3c2nc2ccc(Br)cc2c3N)c1` here?
Answer: The Potency was inconclusive: 7.3 µM [inhibitor, partial curve].

Question: With `Cc1ccc(C(CC(=O)O)NC(=O)c2ccc(S(=O)(=O)N3CCCC3)cc2)cc1` (stereo not given) as the molecule, how does the Potency read?
Answer: Its Potency is inconclusive: 35.5 µM [activator, partial curve, poor fit].

Question: With `COc1cc2c(cc1[N+](=O)[O-])-c1ccccc1C2` as the molecule, how does the Potency read?
Answer: The Potency was inconclusive: 3.16 µM [activator, single point].

Question: For `CCOC(=O)c1cnc2c(C)c(Cl)ccc2c1Nc1ccc(S(=O)(=O)Nc2ncccn2)cc1`, which Potency is on record?
Answer: The Potency was “inactive”.

Question: For `CN(CCOC(=O)c1ccc2c(c1)OCCO2)Cc1ccccc1`, which Potency is on record?
Answer: The Potency was “inactive”.

Question: Which Potency does the source give for `CCC(C)c1ccc(S(=O)(=O)N2CCN(CC(O)COCC3CCCO3)CC2)cc1` (stereo not given) here?
Answer: The Potency was “inactive”.

Question: Which Potency does the source give for `CC(=O)c1c(C)[nH]c(C(=O)Nc2nc(-c3ccccc3)c(C)s2)c1C` here?
Answer: Its Potency is inconclusive: 1.26 µM [activator, single point].

Question: With `O=C(O)CSc1ncnc2c1oc1ccccc12` as the molecule, how does the Potency read?
Answer: Its Potency is “inactive”.

Question: With `Cc1ccc[n+](-c2nc3ccccc3nc2C(=C=[N-])C#N)c1` as the molecule, how does the Potency read?
Answer: Its Potency is inconclusive: 0.82 µM [activator, full curve, poor fit].

Question: Which Potency does the source give for `CC1CCCN(S(=O)(=O)c2ccc(C(=O)Nc3nnc(-c4ccncc4)o3)cc2)C1` (stereo not given) here?
Answer: The Potency was inconclusive: 1.12 µM [inhibitor, full curve, poor fit].

Question: Which Potency does the source give for `Oc1ccc(NC(=S)N=Nc2c(O)[nH]c3ccccc23)cc1` here?
Answer: The Potency was inconclusive: 7.94 µM [inhibitor, single point].

Question: For `Cc1cccc(NC(=S)N2CCCCC2)c1`, which Potency is on record?
Answer: The Potency was inconclusive: 0.631 µM [inhibitor, partial curve, poor fit].

Question: With `CCOCCCNC(=O)CCS(=O)(=O)Cc1ccc(C)cc1` as the molecule, how does the Potency read?
Answer: The Potency was inconclusive: 0.651 µM [inhibitor, full curve, poor fit].

Question: Which Potency does the source give for `Cc1ccc(S(=O)(=O)N(CC(=O)NCCSc2ccccn2)c2cc(C)cc(C)c2)cc1` here?
Answer: The Potency was inconclusive: 35.5 µM [inhibitor, single point].

Question: Which Potency does the source give for `CN(Cc1ccccc1)C(=O)COC(=O)Cn1cnc2ccccc21` here?
Answer: Its Potency is “inactive”.

Question: For `CC(=O)N1CCN(c2ccc(NC(=S)NC(=O)c3ccccc3)cc2)CC1`, which Potency is on record?
Answer: Its Potency is inconclusive: 5.62 µM [inhibitor, single point].

Question: Which Potency does the source give for `CC(C)Nc1nc(NC(C)C)nc(OCCOC(=O)c2ccccc2)n1` here?
Answer: The Potency was “inactive”.

Question: Which Potency does the source give for `COc1ccc2[nH]c3c(NCCC4=CCCCC4)ncnc3c2c1` here?
Answer: The Potency was active: 10 µM.

Question: With `O=C(Nc1ccc2oc(-c3ccncc3)nc2c1)c1ccc2c(c1)OCCO2` as the molecule, how does the Potency read?
Answer: Its Potency is “inactive”.

Question: Which Potency does the source give for `Cc1cc(NC(=O)CCC(=O)N(CC(=O)NC2CCCC2)Cc2ccco2)no1` here?
Answer: Its Potency is inconclusive: 3.55 µM [activator, partial curve, poor fit].

Question: With `N/C(=N\N=C\c1cccs1)SC1CC(=O)N(c2cccc([N+](=O)[O-])c2)C1=O` (stereo not given) as the molecule, how does the Potency read?
Answer: The Potency was inconclusive: 2.82 µM [activator, partial curve, poor fit].

Question: With `O=C(CNC(=O)C1CCCCC1)OCc1cc(=O)oc2ccc3ccccc3c12` as the molecule, how does the Potency read?
Answer: The Potency was inconclusive: 2.82 µM [inhibitor, single point].

Question: For `Cc1cc(NC(=O)c2cccc(S(=O)(=O)N3CCCCC3)c2)no1`, which Potency is on record?
Answer: The Potency was “inactive”.

Question: For `NS(=O)(=O)c1ccc(CCNC(=O)c2cc(-c3ccccc3)nc3ccccc23)cc1`, which Potency is on record?
Answer: Its Potency is inconclusive: 12.6 µM [inhibitor, single point].

Question: Which Potency does the source give for `COc1ccc(C(=O)Nc2cc3c(cc2OC)CCCC3)cc1Br` here?
Answer: The Potency was inconclusive: 12.6 µM [inhibitor, partial curve, poor fit].

Question: Which Potency does the source give for `C/C(=N\Nc1nc2ccccc2[nH]1)c1cc2ccccc2o1` here?
Answer: Its Potency is inconclusive: 25.1 µM [inhibitor, single point].
